Drug screen on melanoma cell lines: cell count

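The test systems are human melanoma cell lines, treated with a pair of drugs for 72 h and then stained and imaged. The read-out is cell count (nuclei) in % of the DMSO control; lower values mean stronger growth inhibition or killing. Concentrations were fixed for each drug; these are the higher of two levels. These are primary screening values without error estimates.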 This is part of the screen, not chosen by result. An entry leaves out what has no value listed here. A dash means that no value is listed here.

All values are for the listed drug together with fingolimod (10 µM): CCCCCCCCc1ccc(CCC(N)(CO)CO)cc1

Compounds and concentrations:
AZD7762: NC(=O)Nc1cc(-c2cccc(F)c2)sc1C(=O)N[C@H]1CCCNC1 at 0.1 µM
vorinostat: O=C(CCCCCCC(=O)Nc1ccccc1)NO at 0.4 µM
ruxolitinib: N#CC[C@H](C1CCCC1)n1cc(-c2ncnc3[nH]ccc23)cn1 at 5 µM
dasatinib: Cc1nc(Nc2ncc(C(=O)Nc3c(C)cccc3Cl)s2)cc(N2CCN(CCO)CC2)n1 at 0.02 µM
lestaurtinib: C[C@]12O[C@H](C[C@]1(O)CO)n1c3ccccc3c3c4c(c5c6ccccc6n2c5c31)CNC4=O at 0.02 µM
nilotinib: Cc1cn(-c2cc(NC(=O)c3ccc(C)c(Nc4nccc(-c5cccnc5)n4)c3)cc(C(F)(F)F)c2)cn1 at 1 µM
vatalanib: Clc1ccc(Nc2nnc(Cc3ccncc3)c3ccccc23)cc1 at 10 µM
temozolomide: Cn1nnc2c(C(N)=O)ncn2c1=O at 10 µM
gemcitabine: Nc1ccn([C@@H]2O[C@H](CO)[C@@H](O)C2(F)F)c(=O)n1 at 0.002 µM
vismodegib: CS(=O)(=O)c1ccc(C(=O)Nc2ccc(Cl)c(-c3ccccn3)c2)c(Cl)c1 at 5 µM
bortezomib: CC(C)C[C@H](NC(=O)[C@H](Cc1ccccc1)NC(=O)c1cnccn1)B(O)O at 0.005 µM
FK866: O=C(/C=C/c1cccnc1)NCCCCC1CCN(C(=O)c2ccccc2)CC1 at 0.05 µM
tanespimycin: C=CCNC1=C2C[C@@H](C)C[C@H](OC)[C@H](O)[C@@H](C)/C=C(\C)[C@H](OC(N)=O)[C@@H](OC)/C=C\C=C(/C)C(=O)NC(=CC1=O)C2=O at 0.01 µM
vincristine: CC[C@]1(O)C[C@H]2CN(CCc3c([nH]c4ccccc34)[C@@](C(=O)OC)(c3cc4c(cc3OC)N(C=O)[C@H]3[C@@](O)(C(=O)OC)[C@H](OC(C)=O)[C@]5(CC)C=CCN6CC[C@]43[C@@H]65)C2)C1 at 0.0005 µM
ENMD-2076: Cc1cc(Nc2cc(N3CCN(C)CC3)nc(/C=C/c3ccccc3)n2)n[nH]1 at 0.2 µM
cisplatin: N.N.[Cl][Pt][Cl] at 8 µM
darinaparsin: C[As](C)SC[C@H](NC(=O)CC[C@H](N)C(=O)O)C(=O)NCC(=O)O at 2 µM
stibogluconate: O=C(O)[C@@H]1[O][Sb](=[O])([O][Sb]2(=[O])[O][C@H]([C@H](O)CO)[C@H](O)[C@H](C(=O)O)[O]2)[O][C@H]([C@H](O)CO)[C@@H]1O (some centres unmarked) at 10 µM
cediranib: COc1cc2c(Oc3ccc4[nH]c(C)cc4c3F)ncnc2cc1OCCCN1CCCC1 at 2 µM
pazopanib: Cc1ccc(Nc2nccc(N(C)c3ccc4c(C)n(C)nc4c3)n2)cc1S(N)(=O)=O at 2 µM
BI-D1870: CC(C)CCN1c2nc(Nc3cc(F)c(O)c(F)c3)ncc2N(C)C(=O)C1C (centres unmarked) at 1 µM
IMD-0354: O=C(Nc1cc(C(F)(F)F)cc(C(F)(F)F)c1)c1cc(Cl)ccc1O at 0.08 µM
PD173074: CCN(CC)CCCCNc1ncc2cc(-c3cc(OC)cc(OC)c3)c(NC(=O)NC(C)(C)C)nc2n1 at 0.5 µM
erlotinib: C#Cc1cccc(Nc2ncnc3cc(OCCOC)c(OCCOC)cc23)c1 at 4 µM
tozasertib: Cc1cc(Nc2cc(N3CCN(C)CC3)nc(Sc3ccc(NC(=O)C4CC4)cc3)n2)n[nH]1 at 0.03 µM
LFM-A13: C/C(O)=C(\C#N)C(=O)Nc1cc(Br)ccc1Br at 10 µM
GW441756: Cn1cc(/C=C2\C(=O)Nc3cccnc32)c2ccccc21 at 2 µM
CP-690550: C[C@@H]1CCN(C(=O)CC#N)C[C@@H]1N(C)c1ncnc2[nH]ccc12 at 5 µM
fludarabine: Nc1nc(F)nc2c1ncn2[C@@H]1O[C@H](CO)[C@@H](O)[C@@H]1O at 1 µM
selumetinib: Cn1cnc2c(F)c(Nc3ccc(Br)cc3Cl)c(C(=O)NOCCO)cc21 at 0.075 µM
ABT-263: CC1(C)CCC(c2ccc(Cl)cc2)=C(CN2CCN(c3ccc(C(=O)NS(=O)(=O)c4ccc(N[C@H](CCN5CCOCC5)CSc5ccccc5)c(S(=O)(=O)C(F)(F)F)c4)cc3)CC2)C1 at 2 µM
JZL184: O=C(Oc1ccc([N+](=O)[O-])cc1)N1CCC(C(O)(c2ccc3c(c2)OCO3)c2ccc3c(c2)OCO3)CC1 at 5 µM
enzastaurin: Cn1cc(C2=C(c3cn(C4CCN(Cc5ccccn5)CC4)c4ccccc34)C(=O)NC2=O)c2ccccc21 at 4 µM
CHIR-265: Cn1c(Nc2ccc(C(F)(F)F)cc2)nc2cc(Oc3ccnc(-c4ncc(C(F)(F)F)[nH]4)c3)ccc21 at 0.4 µM
decitabine: Nc1ncn([C@H]2C[C@H](O)[C@@H](CO)O2)c(=O)n1 at 0.5 µM
OSI-906: C[C@]1(O)C[C@@H](c2nc(-c3ccc4ccc(-c5ccccc5)nc4c3)c3c(N)nccn32)C1 at 2 µM

Second drug | WM3619 | COLO 792 | C32 | COLO 829 | WM451Lu | COLO 800
tanespimycin | 9.1 | 1.5 | 11.3 | 33.3 | 16.2 | 9.2
dasatinib | 0.5 | 7.8 | 22.7 | 30.0 | 22.2 | 29.4
fludarabine | 3.9 | 2.4 | 6.7 | 42.8 | 4.4 | 7.7
tozasertib | 2.7 | 30.1 | 17.3 | 52.9 | 25.3 | 20.2
OSI-906 | 2.2 | 2.2 | 23.1 | 44.7 | 13.4 | 11.3
ENMD-2076 | 2.2 | 18.1 | 26.5 | 53.9 | 37.9 | 111
vismodegib | 2.4 | 1.0 | 29.3 | 25.8 | 8.4 | 15.4
enzastaurin | 3.7 | 2.4 | 13.4 | 47.2 | 3.7 | 10.8
pazopanib | 2.1 | 4.2 | 27.8 | 41.7 | 10.9 | 17.0
LFM-A13 | 3.8 | 4.2 | 10.3 | 46.9 | 15.2 | 22.3
lestaurtinib | 2.6 | 0.7 | 4.0 | 47.7 | 5.2 | 10.4
cediranib | 3.3 | 2.0 | 2.7 | 34.7 | 8.0 | 21.6
vincristine | 3.7 | 1.7 | 18.7 | 35.6 | 7.2 | 20.2
temozolomide | 5.2 | 23.1 | 37.1 | 57.8 | 30.2 | 18.1
CHIR-265 | 2.5 | 1.0 | 12.8 | 46.1 | 6.4 | 19.1
selumetinib | 3.5 | 5.1 | 30.0 | 38.6 | 2.5 | 11.0
ABT-263 | 1.5 | 1.9 | 9.5 | 6.5 | 9.1 | 4.3
erlotinib | 7.5 | 0.7 | 11.6 | 11.8 | 6.3 | 19.8
JZL184 | 1.6 | 1.5 | 6.8 | 41.0 | 9.2 | 12.9
GW441756 | 2.6 | 1.9 | 13.4 | 45.6 | 22.2 | 10.8
nilotinib | 4.2 | 0.8 | 13.4 | 54.5 | 8.4 | 5.8
FK866 | 2.6 | 0.8 | 13.1 | 9.5 | 3.9 | 9.8
stibogluconate | 19.0 | 54.9 | 37.8 | 77.0 | 26.0 | 62.2
vorinostat | - | 1.7 | 8.0 | 49.5 | 8.4 | 10.1
CP-690550 | 1.2 | 2.3 | 16.0 | 82.5 | 16.3 | 21.9
bortezomib | 1.9 | 1.5 | 11.1 | 5.0 | 2.7 | 23.1
gemcitabine | 34.5 | 17.8 | 13.8 | 35.5 | 14.1 | 48.0
BI-D1870 | 56.0 | 59.5 | 17.6 | 100 | 39.4 | 14.9
ruxolitinib | 1.9 | 1.2 | 15.6 | 41.1 | 9.6 | 20.2
IMD-0354 | 2.0 | 34.7 | 19.2 | 51.5 | 15.5 | 11.8
PD173074 | 5.1 | 31.6 | 25.2 | 75.5 | 16.7 | 21.3
decitabine | 1.6 | 5.2 | 11.7 | 16.3 | 11.7 | 4.8
vatalanib | 1.4 | 0.9 | 3.1 | 25.1 | 3.6 | 6.5
AZD7762 | 7.2 | 2.1 | 3.1 | 45.4 | 9.9 | 11.9
cisplatin | 2.7 | 4.7 | 10.0 | 47.4 | 8.0 | 6.1
darinaparsin | 12.0 | 1.6 | 2.9 | 20.8 | 1.4 | 15.6

Repeated from the top, 3 entries:

{"second drug": "tanespimycin", "WM3619": 9.1, "COLO 792": 1.5, "C32": 11.3, "COLO 829": 33.3, "WM451Lu": 16.2, "COLO 800": 9.2}
{"second drug": "dasatinib", "WM3619": 0.5, "COLO 792": 7.8, "C32": 22.7, "COLO 829": 30.0, "WM451Lu": 22.2, "COLO 800": 29.4}
{"second drug": "fludarabine", "WM3619": 3.9, "COLO 792": 2.4, "C32": 6.7, "COLO 829": 42.8, "WM451Lu": 4.4, "COLO 800": 7.7}

From a melanoma drug combination screen (doi:10.1371/journal.pone.0140310); values rounded.